The exact form of at least one protein or probe is not confirmed. At least one verdict was read from the data and is not stated in words by the source.
Legend:
Experiment in all cases: EMSA
Details in all cases: dimerization lost, one- and two-site occupancy; 10 mM sodium phosphate pH 6.0, 100 mM NaCl, 5 mM EDTA, on ice 30 min (1 h for 32P titrations); 9 nM DNA for Kd, 2 uM DNA for SYBR Green EMSA; recombinant protein; residues 71-184; protein details: 6xHis
[1] = target: SOX9 D-HMG A76 mutant (Homo sapiens) (UniProt P48436)
[2] = target: SOX9 D-HMG I73 mutant (Homo sapiens) (UniProt P48436)
[3] = target: SOX9 D-HMG L81 mutant (Homo sapiens) (UniProt P48436)
[4] = target: SOX9 D-HMG V77 mutant (Homo sapiens) (UniProt P48436)
[5] = target: SOX9 D-HMG V80 mutant (Homo sapiens) (UniProt P48436)
[6] = target: SOX9 D-HMG Y84 mutant (Homo sapiens) (UniProt P48436)

Amino acid sequences for entries named in this document (tags omitted). Residues count along the entry.
UniProt P48436, 71-184, stated change not applied: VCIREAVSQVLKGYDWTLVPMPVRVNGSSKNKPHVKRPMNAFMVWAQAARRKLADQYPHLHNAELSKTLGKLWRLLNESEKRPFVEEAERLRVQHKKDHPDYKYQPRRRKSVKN

Measured: binding result

GGGATCCTACACAAAGCCGGCTTTGTGTAGGATCCC (double strand) [CC36]
binds: all assays above
